Experimental data published in the supplement of paper PMC7125110.
± gives the standard error. The uncertainty is large for many entries.

B1: glmS ribozyme (parent)
chain: AUAAAAGCGCCAGAACUACAGAAAUGUAGUUGACGAGGAGGAGGUUUAUCGAAUUUUCGGCGGAUGCCUCCAAA

Variants of: B1
Assay: self-cleavage kobs at 40 uM GlcN6P; higher = faster cleavage; RNA array
Details: with glucosamine-6-phosphate
Outline: (§1)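 kcat and KM were obtained from weighted Michaelis–Menten fits across concentrations of kobs values. Those came from one- or two-exponential decay fits to per-tile medians normalised to baseline and to non-cleaving reference variants. The variants were barcoded ribozymes transcribed in situ by E. coli RNA polymerase on sequenced MiSeq chips and tracked through a hybridised Cy3 probe at 37 °C, with 40 μM to 10 mM glucosamine-6-phosphate in HEPES/KCl/Mg(OAc)2 buffer flowed in.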

Variant | self-cleavage kobs at 40 uM GlcN6P [s⁻¹]
A36C G51A C71G | 5.84e-05 ± 3.3e-05
A36U C50G U57C | 3.97e-05 ± 2.6e-05
A36U C58G C70U | 4.08e-05 ± 2.9e-05
A36U G66U C68A | 3.24e-05 ± 3.1e-05
A36U U69G C71A | 4.75e-05 ± 3.4e-05
G37A C71A | 1.89e-05 ± 1.5e-05
G37A G40A | 3.4e-05 ± 1.9e-05
G37A U45G | 1.62e-05 ± 1.1e-05
G37A U55C | 2.07e-05 ± 1.3e-05
G37C C50G | 2.23e-05 ± 1.4e-05
G38U G62A C68G | 3.45e-05 ± 2.5e-05
A39C G66U | 1.4e-05 ± 1.4e-05
A39G A52G | 2.35e-05 ± 1.4e-05
A39U G66U C67A | 2.17e-05 ± 1.7e-05
G40C U46C | 4.12e-05 ± 2.4e-05
G40U G66C | 2.08e-05 ± 1.8e-05
G41A C70A | 2e-05 ± 1e-05
G41C U54G | 2.21e-05 ± 1.6e-05
G41U C67G C68A | 5.83e-05 ± 3.1e-05
G44A A53G | 2.01e-05 ± 1.8e-05
G44U U55A | 2.12e-05 ± 1.9e-05
U45G C70G | 2.15e-05 ± 1.8e-05
U46C U56C | 3.65e-05 ± 2e-05

Variant | self-cleavage kobs at 40 uM GlcN6P [s⁻¹]
U46G C50U C68G | 4.29e-05 ± 2.7e-05
U47A C67G | 2.36e-05 ± 1.9e-05
U47A U69G | 1.94e-05 ± 1.8e-05
U47G G59U C61U C68A | 3e-05 ± 1.9e-05
U47G U55A C68G C71G | 3.54e-05 ± 2.1e-05
A48C | < 1e-05
U49A G66U C68G | 2.79e-05 ± 2.5e-05
U49G U54A | 1.32e-05 ± 1e-05
C50A C68A C70G | 3.45e-05 ± 2.1e-05
C50A C70G | 1.7e-05 ± 9.8e-06
C50G A53G | 0.000932 ± 0.00083
C50G A53U | 3.87e-05 ± 2.6e-05
C50G A64U | 3.01e-05 ± 2e-05
C50G G60U | 0.000896 ± 0.00079
C50G G66A | 3.26e-05 ± 2e-05
C50G U65C | 2.9e-05 ± 1.9e-05
C50U A53G C71G | 3.36e-05 ± 2.4e-05
C50U A53U U69G | 2.27e-05 ± 2.2e-05
G51U U69G | 1.63e-05 ± 1.3e-05
A52C U57A C67G U69A | 2.66e-05 ± 2.1e-05
A52G A53G | 1.39e-05 ± 1.2e-05
A52G C58U C61A | 1.86e-05 ± 1.7e-05
A52G C70U C71G | 2.66e-05 ± 2e-05

Variant | self-cleavage kobs at 40 uM GlcN6P [s⁻¹]
A52G C71A | 2.53e-05 ± 1.7e-05
A52G U69C C70G | 2.99e-05 ± 2.5e-05
A52U U57A C67U | 3.07e-05 ± 2.5e-05
A53C C71G | 3.66e-05 ± 2e-05
A53C U65G | 1.24e-05 ± 1.2e-05
A53G C58A | 1.11e-05 ± 1.1e-05
A53U C70G C71G | 2.59e-05 ± 1.8e-05
U54A U69G | 2.49e-05 ± 1.6e-05
U54G G60C U69A | 4.4e-05 ± 2.3e-05
U55C G66C | 1.94e-05 ± 1.1e-05
U56A C68G | 2.48e-05 ± 1.4e-05
U56A G66U | 1.39e-05 ± 8.7e-06
U56A U69G | 1.69e-05 ± 1.4e-05
U57A C67G | 2.59e-05 ± 1.4e-05
U57G A64U U69G | 2.83e-05 ± 1.9e-05
U57G C58G | 2.05e-05 ± 1.8e-05
U57G C58G U65A C68A | 3.24e-05 ± 1.8e-05
C58G C61G | 2.25e-05 ± 2.1e-05
C58G C67G | 1.82e-05 ± 1.1e-05
C58G C67G C68U | 2.59e-05 ± 1.8e-05
C58G C68U | 1.93e-05 ± 1.4e-05
G60A C68G | 2.19e-05 ± 1.5e-05
G60A C71G | 0.00245 ± 0.0019

Pulled one by one from the list above:
Variant | self-cleavage kobs at 40 uM GlcN6P [s⁻¹]
A53G C58A | 1.11e-05 ± 1.1e-05
A52G C71A | 2.53e-05 ± 1.7e-05
U54G G60C U69A | 4.4e-05 ± 2.3e-05

Variants of: B1
Assay: self-cleavage kobs at 10000 uM GlcN6P; higher = faster cleavage; RNA array
Details: with glucosamine-6-phosphate
Outline: as §1

Variant | self-cleavage kobs at 10000 uM GlcN6P [s⁻¹]
A36C G51A C71G | 2.71e-05 ± 2.2e-05
G37C C50G | 1.53e-05 ± 1.5e-05
U46G C50U C68G | 2.88e-05 ± 2.1e-05
U47G G59U C61U C68A | 2.23e-05 ± 1.6e-05
U49A G66U C68G | 2.32e-05 ± 1.9e-05
C50A C70G | 1.16e-05 ± 1.2e-05
C50G A53G | 6.35e-05 ± 4.4e-05
C50G U65C | 2.66e-05 ± 1.5e-05
U54G G60C U69A | 2.85e-05 ± 1.6e-05
U57G C58G U65A C68A | 2.23e-05 ± 1.9e-05
C58G C67G C68U | 1.95e-05 ± 1.8e-05
G60A C68G | 1.51e-05 ± 1.2e-05

Variants of: B1
Assay: self-cleavage kobs at 160 uM GlcN6P; higher = faster cleavage; RNA array
Details: with glucosamine-6-phosphate
Outline: as §1

Variant | self-cleavage kobs at 160 uM GlcN6P [s⁻¹]
G40U G66C | 4.27e-05 ± 2.2e-05
G41C U54G | 2.99e-05 ± 1.6e-05
G44U U55A | 2.78e-05 ± 1.8e-05
U47A U69G | 5.61e-05 ± 2.9e-05
C50G A53G | 0.000303 ± 0.00019
U57G A64U U69G | 5.33e-05 ± 3e-05
U57G C58G | 5.61e-05 ± 2.9e-05

Variants of: B1
Assay: self-cleavage kobs at 2500 uM GlcN6P; higher = faster cleavage; RNA array
Details: with glucosamine-6-phosphate
Outline: as §1

Variant | self-cleavage kobs at 2500 uM GlcN6P [s⁻¹]
G40U G66C | 0.000224 ± 0.00011
C50G A53U | 2.63e-05 ± 2.5e-05
C50G G66A | 4.29e-05 ± 2.4e-05
C58G C61G | 4.06e-05 ± 2.2e-05

Variants of: B1
Assay: self-cleavage kobs at 640 uM GlcN6P; higher = faster cleavage; RNA array
Details: with glucosamine-6-phosphate
Outline: as §1

Variant | self-cleavage kobs at 640 uM GlcN6P [s⁻¹]
C50G A53G | 0.000466 ± 0.00023
C50G A53U | 3.02e-05 ± 2.1e-05
C50G G66A | 4.27e-05 ± 2.3e-05
A52G C70U C71G | 5.29e-05 ± 2.8e-05
